Here are results for seven molecules from doi:10.1101/2022.07.02.498517.

Protein sequences, listed by entry. Tags and fused reporters are not part of them. Lines headed by an entry give the natural chain unless they say otherwise; changes in a name come on top.
UniProt P07251: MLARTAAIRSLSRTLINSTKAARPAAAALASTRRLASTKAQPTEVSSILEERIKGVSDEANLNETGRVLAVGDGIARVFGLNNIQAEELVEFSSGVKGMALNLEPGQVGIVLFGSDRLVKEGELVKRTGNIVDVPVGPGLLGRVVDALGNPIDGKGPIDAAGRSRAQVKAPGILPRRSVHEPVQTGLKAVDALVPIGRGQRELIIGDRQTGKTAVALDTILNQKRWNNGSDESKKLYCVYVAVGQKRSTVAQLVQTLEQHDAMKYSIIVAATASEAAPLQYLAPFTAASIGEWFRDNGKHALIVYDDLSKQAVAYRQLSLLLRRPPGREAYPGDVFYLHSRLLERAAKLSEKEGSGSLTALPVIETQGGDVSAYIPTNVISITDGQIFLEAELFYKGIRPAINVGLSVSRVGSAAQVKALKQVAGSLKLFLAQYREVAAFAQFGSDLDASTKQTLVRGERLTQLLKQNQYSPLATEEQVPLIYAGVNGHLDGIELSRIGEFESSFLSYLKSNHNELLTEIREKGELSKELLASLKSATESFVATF

Common to all, as to assay: native gel or EMSA
On the technique in general: In EMSA bound probe runs differently from free probe, usually more slowly.

In experiment [1] the target is S. cerevisiae mitochondrial ATP synthase complex (monomer) (S. cerevisiae) (UniProt P07251).
The target is the same in experiment [2]. This is another data set of the same source.
The target is the same in experiment [3]. This is another data set of the same source.
Experiment [4] shares this target. This is another data set of the same source.
Experiment [5] has the same target. The source holds these as a separate data set.

Like-named read-outs stand apart in the source and are kept apart here. Results are given in words; binding and its absence hold for the method and conditions named. Some entries that bind do so weakly or less than the wild type.

B1: chaperonin Hsp10 (S. cerevisiae) (protein, UniProt P38910 1-106)
chain: MSTLLKSAKSIVPLMDRVLVQRIKAQAKTASGLYLPEKNVEKLNQAEVVAVGPGFTDANGNKVVPQVKVGDQVLIPQFGGSTIKLGNDDEVILFRDAEILAKIAKD
B1: the binding entry in experiment [1] and in experiment [2] was “binds” each time.

B2: ATPase activity inhibitor protein Inh1 (protein, UniProt P01097 23-85)
chain: SEGSTGTPRGSGSEDSFVKRERATEDFFVRQREKEQLRHLKEQLEKQRKKIDSLENKIDSMTK
For the molecule B2, the binding entry in experiment [2] is “binds”.

B3: Mic10 (protein, UniProt Q96VH5 1-97)
chain: MSEQAQTQQPAKSTPSKDSNKNGSSVSTILDTKWDIVLSNMLVKTAMGFGVGVFTSVLFFKRRAFPVWLGIGFGVGRGYAEGDAIFRSSAGLRSSKV
As for B3, the binding entry in experiment [1] and in experiment [2] was “binds” each time.

B4: Atp20 (subunit g) (protein, UniProt Q12233 1-115)
chain: MLSRIQNYTSGLVSKANLLSSKALYYGKVGAEISKQIYLKEGLQPPTVAQFKSVYSNLYKQSLNFALKPTEVLSCLKNIQKNELLKYGAYGIQLIGFYSVGEIIGRRKLVGYKHH
B4: the binding result in experiment [1] and in experiment [2] was “binds” in each case.

B5: Atp21 (subunit e) (protein, UniProt P81449 1-96)
chain: MSTVNVLRYSALGLGLFFGFRNDMILKCNAKKKEEQAQYEEKLKLVEEAKKEYAKLHPVVTPKDVPANASFNLEDPNIDFERVILNAVESLKEAST
B5: the binding entry in experiment [1] and in experiment [2] was “binds” in each case.

B6: Mco10 (Mitochondrial class one protein of 10 kDa) (protein, UniProt Q3E824 1-90)
chain: MGAAYKVFGKTVQPHVLAISTFIATAAVASYFTTKPKTKNEGKNSSALSQQKSGESSNSDAMGKDDDVVKSIEGFLNDLEKDTRQDTKAN
Take B6: the binding entry in experiment [3], in experiment [2] and in experiment [4] was “binds” in each case.

B7: Atp19 (subunit k) (protein, UniProt P81451 1-68)
chain: MGAAYHFMGKAIPPHQLAIGTLGLLGLLVVPNPFKSAKPKTVDIKTDNKDEEKFIENYLKKHSEKQDA
With B7, the binding entry in experiment [1], in experiment [5] and in experiment [2] was “binds” each time.
